Test results as given in the supplement of paper PMC12889115.
Some of the results follow. Values are raw readings; no control value is given beside them.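 First-pass screen: polymyxin B was added at a level that permeabilizes the Salmonella outer membrane while sparing the inner membrane. DMSO wells, with and without polymyxin B, defined maximum growth. Because plates differed from one another, each plate's data were ranked separately and the compounds with the lowest OD600 were carried forward as hits.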

Test system: Salmonella enterica serovar Typhimurium SL1344
Assay: bacterial growth OD600 after 18 h with compound and polymyxin B; higher = more bacterial growth (less inhibition)
Details: 50 µM, Mueller-Hinton broth

Row | Structure (SMILES) | bacterial growth OD600 (polymyxin B 0.75 µg/mL) | bacterial growth OD600 (polymyxin B 1 µg/mL)
1 | O=C(CCC1(Cc2cccs2)CCC(=O)N1)NCc1cnn(Cc2ccccc2)c1 (stereo not given) | 0.841 | –
2 | Cc1ccc2c(c1)CN(CCC(=O)NC1CCN(Cc3ccccc3)CC1)CC(C)O2 (stereo not given) | 0.842 | –
3 | Cc1ccccc1CCC1CCCN(C(=O)C(C)C)C1 (stereo not given) | 0.5 | –
4 | O=C(Nc1ccnn1C1CCN(C2CSCCSC2)CC1)C1CCCC1 | 0.879 | –
5 | CCC(=O)C1CCCN(C(=O)CC2(c3ccccc3)CC(=O)N(Cc3ccc4c(c3)OCO4)C2=O)C1 (stereo not given) | 0.095 | –
6 | CN(Cc1ccc2nccnc2c1)C(=O)CCC1(Cc2ccc(-c3ccccc3)cc2)CCC(=O)N1 (stereo not given) | 0.743 | –
7 | CC1(C(=O)N2CCCC(N3CCN(c4ccc(F)cc4)CC3)C2)CCCCC1 (stereo not given) | – | 0.878
8 | CCOC(=O)C1(CCOc2ccccc2)CCN(CC)CC1 | 0.799 | –
9 | COc1cccc(OCc2nc(C(=O)N(C)Cc3cccc(Cl)c3)co2)c1 | – | 0.703
10 | COC(=O)c1cc(CNC(=O)C23CC4CC(CC(C4)C2)C3)cc(NC(=O)Cn2cccn2)c1 | 0.767 | –
11 | Cc1cccc(CN2CCCC3(CCN(C(=O)c4ncoc4C)C3)C2=O)c1 (stereo not given) | – | 0.924
12 | COc1ccc(OC)c(CN2CCc3c(cnc(C)c3CNC(=O)c3ccccc3SC)C2)c1 | 1.08 | –
13 | Cc1c[nH]c(CNCc2cccnc2Oc2ccccc2)n1 | 0.778 | –
14 | O=C(CCN1Cc2ccccc2OC(c2ccccc2F)C1)N1CCCCC1c1cccnc1 (stereo not given) | 0 | –
15 | CCOc1ccc2nc(N3CCCC3C(=O)NCC3(N4CCOCC4)CCCC3)nc(C)c2c1 (stereo not given) | 0.778 | –
16 | O=C(Cc1ccccc1)Nc1ccnn1C1CCN(C2CCSCC2)CC1 | – | 1.06
17 | CCOc1ccc(CN2CCN(Cc3c(OC)cccc3OC)CC2CCO)cc1 (stereo not given) | – | 0.887
18 | O=C(c1ccoc1)N1CCC(C2CCN(Cc3cccc(F)c3F)CC2)C1 (stereo not given) | 0.837 | –
19 | O=C(CCC1CCN(C(=O)c2cccc3ccccc23)CC1)NC1CC1 | – | 0.941
20 | CCOC(=O)C1(Cc2ccccc2C)CCCN(C(=O)c2cc(CC)nn2C)C1 (stereo not given) | – | 0.595
21 | CCN1CCN(C2(C(=O)N(C)Cc3ccncc3C)Cc3ccccc3C2)CC1 | 0.683 | –
22 | COc1cccc(OC)c1CN1CCC2(CC1)c1ccccc1[C@@H](NC(=O)c1ccsc1)[C@@H]2OC | 0.889 | –
23 | Cc1cccc(C(=O)NC2CC(=O)N(CCCc3ccccc3)C2)n1 (stereo not given) | – | 0.911
24 | COc1ccc(C(=O)NC2CC2)c(OC2CCN(Cc3ccccc3)CC2)c1 | – | 1.17
25 | Cc1ccc(CN2CCCC(N3CCN(Cc4ccc5c(c4)OCO5)CC3)C2)s1 (stereo not given) | – | 0.912
26 | COc1cccc(CC(C2CCN(C(=O)/C=C/C(C)C)CC2)N(C)C(=O)CC(C)C)c1 (stereo not given) | 0.635 | –
27 | O=C(/C=C/c1ccco1)N1CCC2(CCCN(CCc3ccccc3)C2)C1 (stereo not given) | 0.005 | –
28 | COc1cccc(OCc2nc(C(=O)NCC(F)(F)F)co2)c1 | – | 0.929
29 | CSc1ccc(CC2(CCC(=O)N(C)CCc3cnn(C)c3)CCC(=O)N2)cc1 (stereo not given) | 0.92 | –
30 | CC1CN(CCC(=O)NCc2cc(-c3ccccc3)[nH]n2)Cc2cc(Cl)ccc2O1 (stereo not given) | 1.05 | –

3 structures already listed, ordered by molar mass, low to high:
Row | Structure (SMILES) | bacterial growth OD600 (polymyxin B 0.75 µg/mL) | bacterial growth OD600 (polymyxin B 1 µg/mL)
9 | COc1cccc(OCc2nc(C(=O)N(C)Cc3cccc(Cl)c3)co2)c1 | – | 0.703
29 | CSc1ccc(CC2(CCC(=O)N(C)CCc3cnn(C)c3)CCC(=O)N2)cc1 (stereo not given) | 0.92 | –
15 | CCOc1ccc2nc(N3CCCC3C(=O)NCC3(N4CCOCC4)CCCC3)nc(C)c2c1 (stereo not given) | 0.778 | –
